These results are taken from paper PMC5509740.

Amino acid sequences for entries named in this document (tags omitted). Residues count along the entry.
UniProt Q3UHD9: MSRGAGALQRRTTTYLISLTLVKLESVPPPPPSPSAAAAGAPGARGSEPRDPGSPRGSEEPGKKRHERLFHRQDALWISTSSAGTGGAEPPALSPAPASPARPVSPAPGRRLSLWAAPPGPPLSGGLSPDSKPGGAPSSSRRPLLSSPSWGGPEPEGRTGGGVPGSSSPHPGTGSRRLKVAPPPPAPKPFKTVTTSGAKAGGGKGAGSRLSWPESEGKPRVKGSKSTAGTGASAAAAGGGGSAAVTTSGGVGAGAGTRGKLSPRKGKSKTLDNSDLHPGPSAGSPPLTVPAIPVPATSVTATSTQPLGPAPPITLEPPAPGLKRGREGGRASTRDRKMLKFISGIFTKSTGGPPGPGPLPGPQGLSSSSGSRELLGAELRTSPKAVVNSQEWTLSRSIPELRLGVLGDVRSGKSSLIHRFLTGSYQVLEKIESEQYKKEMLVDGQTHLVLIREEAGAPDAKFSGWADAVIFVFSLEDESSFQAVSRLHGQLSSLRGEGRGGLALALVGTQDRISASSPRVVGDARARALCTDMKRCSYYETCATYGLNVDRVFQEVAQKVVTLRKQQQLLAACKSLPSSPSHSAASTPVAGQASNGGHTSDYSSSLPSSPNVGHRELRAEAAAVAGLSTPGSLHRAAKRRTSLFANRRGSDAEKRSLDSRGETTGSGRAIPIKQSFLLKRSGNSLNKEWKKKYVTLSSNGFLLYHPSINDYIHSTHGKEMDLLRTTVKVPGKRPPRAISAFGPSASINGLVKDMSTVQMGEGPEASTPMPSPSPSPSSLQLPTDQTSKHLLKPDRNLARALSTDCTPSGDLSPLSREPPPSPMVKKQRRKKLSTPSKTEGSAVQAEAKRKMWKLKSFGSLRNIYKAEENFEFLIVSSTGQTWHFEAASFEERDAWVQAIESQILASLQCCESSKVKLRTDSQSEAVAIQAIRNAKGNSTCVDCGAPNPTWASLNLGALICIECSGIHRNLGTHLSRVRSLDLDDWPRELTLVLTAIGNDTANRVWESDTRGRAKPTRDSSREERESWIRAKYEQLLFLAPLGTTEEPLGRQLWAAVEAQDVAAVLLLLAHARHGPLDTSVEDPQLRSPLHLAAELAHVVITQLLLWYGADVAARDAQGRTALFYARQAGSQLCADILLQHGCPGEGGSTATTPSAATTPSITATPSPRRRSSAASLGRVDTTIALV
UniProt Q7TMB8: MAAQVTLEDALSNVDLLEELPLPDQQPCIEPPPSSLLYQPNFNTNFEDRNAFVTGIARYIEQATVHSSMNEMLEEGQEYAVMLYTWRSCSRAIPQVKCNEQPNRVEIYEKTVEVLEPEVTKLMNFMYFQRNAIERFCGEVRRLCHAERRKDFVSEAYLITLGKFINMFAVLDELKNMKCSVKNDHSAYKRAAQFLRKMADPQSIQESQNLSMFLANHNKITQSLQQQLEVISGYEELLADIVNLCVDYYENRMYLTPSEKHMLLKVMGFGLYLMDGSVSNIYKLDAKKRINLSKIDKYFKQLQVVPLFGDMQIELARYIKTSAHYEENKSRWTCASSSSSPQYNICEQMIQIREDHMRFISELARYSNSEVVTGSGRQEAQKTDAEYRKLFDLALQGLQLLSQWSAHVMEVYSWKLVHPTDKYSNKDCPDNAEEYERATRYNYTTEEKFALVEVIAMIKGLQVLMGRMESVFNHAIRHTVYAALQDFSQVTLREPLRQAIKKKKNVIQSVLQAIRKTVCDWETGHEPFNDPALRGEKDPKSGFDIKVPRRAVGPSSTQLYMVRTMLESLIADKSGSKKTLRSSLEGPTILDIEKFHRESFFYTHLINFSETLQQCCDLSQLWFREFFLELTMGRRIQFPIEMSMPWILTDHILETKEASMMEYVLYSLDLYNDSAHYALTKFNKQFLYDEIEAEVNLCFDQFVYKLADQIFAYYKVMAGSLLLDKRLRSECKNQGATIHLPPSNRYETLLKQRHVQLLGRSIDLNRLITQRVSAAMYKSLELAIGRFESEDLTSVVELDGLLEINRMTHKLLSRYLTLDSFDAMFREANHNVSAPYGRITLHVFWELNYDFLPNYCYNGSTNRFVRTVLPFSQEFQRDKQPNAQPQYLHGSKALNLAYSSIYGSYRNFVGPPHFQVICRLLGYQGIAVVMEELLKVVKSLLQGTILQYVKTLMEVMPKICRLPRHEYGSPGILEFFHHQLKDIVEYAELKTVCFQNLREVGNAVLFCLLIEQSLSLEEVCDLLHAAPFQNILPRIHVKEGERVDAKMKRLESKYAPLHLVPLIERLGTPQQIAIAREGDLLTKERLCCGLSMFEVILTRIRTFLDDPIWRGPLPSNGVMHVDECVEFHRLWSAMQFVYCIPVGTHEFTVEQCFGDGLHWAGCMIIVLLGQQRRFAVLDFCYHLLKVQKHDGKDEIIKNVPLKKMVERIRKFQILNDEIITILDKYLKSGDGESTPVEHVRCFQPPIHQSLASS
UniProt Q5SQX6: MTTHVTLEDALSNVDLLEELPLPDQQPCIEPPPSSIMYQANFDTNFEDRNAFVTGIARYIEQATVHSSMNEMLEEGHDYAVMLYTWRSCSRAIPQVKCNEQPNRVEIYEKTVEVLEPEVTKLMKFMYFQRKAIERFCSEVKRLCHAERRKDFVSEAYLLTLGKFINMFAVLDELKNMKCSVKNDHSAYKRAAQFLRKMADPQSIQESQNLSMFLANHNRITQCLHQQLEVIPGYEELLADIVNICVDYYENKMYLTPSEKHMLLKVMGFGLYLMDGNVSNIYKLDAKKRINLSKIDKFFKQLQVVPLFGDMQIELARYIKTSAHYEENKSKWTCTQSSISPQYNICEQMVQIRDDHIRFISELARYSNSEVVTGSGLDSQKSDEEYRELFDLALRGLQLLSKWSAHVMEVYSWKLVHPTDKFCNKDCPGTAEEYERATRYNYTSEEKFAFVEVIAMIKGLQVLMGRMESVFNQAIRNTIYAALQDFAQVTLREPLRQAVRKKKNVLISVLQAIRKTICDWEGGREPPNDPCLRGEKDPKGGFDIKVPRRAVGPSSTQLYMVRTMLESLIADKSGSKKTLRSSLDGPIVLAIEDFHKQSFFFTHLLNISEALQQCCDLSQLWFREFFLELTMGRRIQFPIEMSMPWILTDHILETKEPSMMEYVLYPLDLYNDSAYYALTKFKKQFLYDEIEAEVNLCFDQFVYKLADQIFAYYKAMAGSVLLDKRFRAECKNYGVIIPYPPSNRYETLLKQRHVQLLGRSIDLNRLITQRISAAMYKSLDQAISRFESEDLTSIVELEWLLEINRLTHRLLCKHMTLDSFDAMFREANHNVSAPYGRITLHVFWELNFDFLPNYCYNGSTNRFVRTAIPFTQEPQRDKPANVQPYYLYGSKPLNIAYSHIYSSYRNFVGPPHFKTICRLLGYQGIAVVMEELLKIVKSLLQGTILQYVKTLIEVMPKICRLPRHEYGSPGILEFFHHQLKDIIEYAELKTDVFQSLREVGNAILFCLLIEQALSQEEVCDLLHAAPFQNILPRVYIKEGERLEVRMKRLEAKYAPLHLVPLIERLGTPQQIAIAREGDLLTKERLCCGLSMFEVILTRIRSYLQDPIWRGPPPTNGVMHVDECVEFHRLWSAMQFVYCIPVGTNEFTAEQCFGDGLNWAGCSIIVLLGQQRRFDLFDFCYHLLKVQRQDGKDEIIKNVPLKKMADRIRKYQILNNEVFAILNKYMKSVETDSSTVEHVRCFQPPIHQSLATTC
UniProt Q9QYS2, residues 23-879: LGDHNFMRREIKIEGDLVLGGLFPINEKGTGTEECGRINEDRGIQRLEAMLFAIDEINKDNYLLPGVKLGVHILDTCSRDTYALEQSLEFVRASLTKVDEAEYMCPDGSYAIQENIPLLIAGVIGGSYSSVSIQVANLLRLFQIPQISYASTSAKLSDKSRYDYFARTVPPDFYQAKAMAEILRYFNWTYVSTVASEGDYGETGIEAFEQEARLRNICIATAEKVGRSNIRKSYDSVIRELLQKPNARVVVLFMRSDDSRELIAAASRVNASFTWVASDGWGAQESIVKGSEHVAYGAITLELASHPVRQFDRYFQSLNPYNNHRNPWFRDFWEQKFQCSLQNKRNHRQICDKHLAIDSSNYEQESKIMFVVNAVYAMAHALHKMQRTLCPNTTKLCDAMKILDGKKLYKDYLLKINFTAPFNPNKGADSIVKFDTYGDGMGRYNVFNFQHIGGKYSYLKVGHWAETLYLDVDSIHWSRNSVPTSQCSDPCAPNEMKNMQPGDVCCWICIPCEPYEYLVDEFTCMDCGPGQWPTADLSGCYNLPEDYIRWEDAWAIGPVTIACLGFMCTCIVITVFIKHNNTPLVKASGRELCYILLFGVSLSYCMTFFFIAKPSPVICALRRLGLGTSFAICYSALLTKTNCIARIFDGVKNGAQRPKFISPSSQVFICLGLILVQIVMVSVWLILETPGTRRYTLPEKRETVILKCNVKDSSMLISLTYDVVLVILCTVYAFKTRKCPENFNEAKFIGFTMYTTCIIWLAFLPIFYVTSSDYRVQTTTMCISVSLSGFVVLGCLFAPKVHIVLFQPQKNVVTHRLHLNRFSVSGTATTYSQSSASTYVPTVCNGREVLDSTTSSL

No constants are given. Whether binding was seen depends on the method and setting. In cells and extracts the contact can be indirect. Here binding means that the protein was enriched with, or labelled near, the bait; the list need not be complete.

Assay [1] addresses Kalirin (mouse (endogenous in adult mouse cortex)) (UniProt A2CG49). In words: affinity purification with mass spectrometry; immunoprecipitation of the endogenous bait (Agap2, Syngap1 or Kalirin) with its antibody and protein G Dynabeads from the PSD (DOC-soluble) fraction of adult mouse cortex, 2 mg protein, 4 degrees Celsius overnight; washes 25 mM Tris pH 7.4, 150 mM NaCl, 1 mM EDTA, 1% sodium deoxycholate; HPLC-MS/MS; positive if at least two peptides in at least two assays and absent in anti-GST controls.

Assay [2] has as its target Agap2 (mouse (endogenous in adult mouse cortex)) (UniProt Q3UHD9). The assay is described as above.
Assay [3] has as its target Syngap1 (mouse (endogenous in adult mouse cortex)) (UniProt F6SEU4). The assay is described as above.
For assay [4], the target named is Agap2 (mouse (endogenous in adult mouse cortex)) (UniProt Q3UHD9). Kind of assay: affinity purification with mass spectrometry; immunoprecipitation of endogenous Agap2 with its antibody and protein G Dynabeads from the non-PSD (Triton-soluble) fraction of adult mouse cortex, 2 mg protein, 4 degrees Celsius overnight; washes 25 mM Tris pH 7.4, 150 mM NaCl, 1 mM EDTA, 1% Triton X-100; HPLC-MS/MS; positive if at least two peptides in at least two assays and absent in anti-GST controls.

As to “Camk2a (from UniProt P11798 1-478) (enzyme)”, the binding entry in assay [1] is reported as “binds”.
On the same count and under the same terms, next, “Camk2b (from UniProt P28652 1-542) (enzyme)”: “binds”.
With Cyfip1 (from UniProt Q7TMB8 1-1253), in assay [2], the binding result is given as “binds”.
As for Cyfip2 (from UniProt Q5SQX6 1-1253), the binding entry in assay [3], in assay [2] and in assay [4] was “binds” in each case.
Regarding “Grm1 (from UniProt P97772 21-1199) (receptor)”, the binding entry in assay [2] and in assay [4] was “binds” each time.
With “Grm2 (from UniProt Q14BI2 19-872) (receptor)”, the binding entry in assay [2] and in assay [4] was “binds” each time.
As to “Grm3 (from UniProt Q9QYS2 23-879) (receptor)”, the binding result in assay [2] is listed as “binds”.
On to “Grm5 (from UniProt Q3UVX5 19-1203) (receptor)”, for which the binding result in assay [3] and in assay [2] was “binds” each time.
As for Iqgap1 (from UniProt Q9JKF1 1-1657), the binding result in assay [2] is recorded as “binds”.
As to “Pkn2 (from UniProt Q8BWW9 1-983) (enzyme)”, the binding result in assay [4] was “binds”.
Take Syngap1 (from UniProt F6SEU4 1-1340): the binding entry in assay [2] is given as “binds”.
